Measurements reported in patent publication US20060026719A1.
These are yes or no findings as the source states them, for the method shown. Some entries that bind do so weakly or less than the wild type.

The chains behind the UniProt entries cited, without tags or fusion partners. Where a name states a change or a piece, a line headed by the entry shows the natural chain unless it says otherwise.
UniProt P01241: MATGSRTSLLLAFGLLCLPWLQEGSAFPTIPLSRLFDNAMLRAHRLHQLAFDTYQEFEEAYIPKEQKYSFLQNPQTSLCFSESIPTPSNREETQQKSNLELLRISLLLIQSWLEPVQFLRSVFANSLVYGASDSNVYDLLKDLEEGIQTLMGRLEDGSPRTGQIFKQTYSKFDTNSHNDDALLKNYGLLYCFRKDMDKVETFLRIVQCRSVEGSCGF

Target: T1, growth hormone receptor (GHR) on GHR-expressing NIH 3T3-L1 cells (UniProt P16882)
T1 sequence (looked up): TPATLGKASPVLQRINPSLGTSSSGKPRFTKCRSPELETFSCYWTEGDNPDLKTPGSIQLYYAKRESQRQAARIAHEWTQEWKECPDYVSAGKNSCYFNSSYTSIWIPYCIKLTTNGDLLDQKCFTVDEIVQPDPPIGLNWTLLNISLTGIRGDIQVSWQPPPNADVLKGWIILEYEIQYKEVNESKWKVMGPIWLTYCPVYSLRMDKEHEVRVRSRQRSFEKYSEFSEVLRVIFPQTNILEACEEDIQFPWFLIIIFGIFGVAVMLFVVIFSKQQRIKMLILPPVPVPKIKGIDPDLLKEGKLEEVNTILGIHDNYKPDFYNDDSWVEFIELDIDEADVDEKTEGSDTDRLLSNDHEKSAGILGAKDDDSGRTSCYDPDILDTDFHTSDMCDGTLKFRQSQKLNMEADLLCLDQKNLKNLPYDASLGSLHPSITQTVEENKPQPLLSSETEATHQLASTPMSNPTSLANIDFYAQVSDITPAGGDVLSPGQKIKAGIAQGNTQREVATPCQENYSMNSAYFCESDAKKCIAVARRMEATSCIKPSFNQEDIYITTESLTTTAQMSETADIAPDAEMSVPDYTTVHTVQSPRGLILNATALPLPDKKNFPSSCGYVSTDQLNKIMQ
Assay: radioreceptor competition assay, displacement of [125I]-hGH from GHR-expressing NIH 3T3-L1 cells

binding: binds
Substance: commercially available human growth hormone (hGH) (from UniProt P01241 27-217) (ligand)
